Data published in US8349316B2, “Lactobacillus fermentum SG-A95 for improving oral bacterial groups and health care compositions thereof” (priority 2010, dated 2013).
At least one structure is not confirmed: it was looked up by name or label, or the drawing left a doubt.

Columns and labels:
[1] = test system: artificially induced periodontal disease (ligature wire, Streptococcus mutans inoculated in gum tissue); experiment: Evaluation of preventive effect for animal periodontal disease; assay type: in vivo, Balb/c mice; settings: prevention groups
Procedure: (§1) This trial included treatment groups and control groups. The-treatment group of Lactobacillus fermentum SG-A95 were divided into 6 groups as follows: 3 groups of dialyzed Lactobacillus fermentum SG-A95 fermentation product concentrate such as 4-fold, 2-fold, and 1-fold (unconcentrated fermentation broth) and 3 groups of Lactobacillus fermentum SG-A95 in various numbers of bacteria such as 1×10^9, 2×10^9 and 5×10^9. Two control groups were treated with 0.267 mg/mL of tetracycline and distilled water.
Twelve of 8-week-old female Balb/c mice were selected for each group (Table 2). The mice were administered with various concentrations of Lactobacillus fermentum SG-A95 fermentation product or live Lactobacillus fermentum SG-A95, and 1 mL of 0.267 mg/mL tetracyccline or distilled water separately. […] Their pathological symptoms were observed and recorded until sacrificing all animals. Until the control group (feeding with distilled water, mock-treated group) showing gum swelling and dental plaque appearance diagnosed by chief dentists, the ligature wire was removed and inoculation of dental pathogen was stopped. At day 4, 8, 12, and 16 after wire removal, mice periodontal pocket depth was examined, 3 mice from each group were killed for blood sampling and samples were collected for histological analysis. […]

[2] = test system: artificially induced periodontal disease (ligature wire, Streptococcus mutans inoculated in gum tissue); experiment: Evaluation of therapeutic effect for animal periodontal disease; assay type: in vivo, Balb/c mice; settings: treatment groups
Procedure: as §1
Twelve of 8-week-old female Balb/c mice were selected for each group (Table 3). […] After diagnosis of diseased tissue by chief dentists, they were administered different concentrations of Lactobacillus fermentum SG-A95 fermentation product, live Lactobacillus fermentum SG-A95, 1 mL of 0.267 mg/mL tetracycline or distill water every day. The symptoms were recorded. The wire was removed at the beginning of the treatment and stop periodontal pathogen inoculation. At day 4, 8, 12, and 16 after wire removal, mice periodontal pocket depth was examined. 3 mice from each group were killed for blood sampling and histological analysis.
Control group was used as a standard to examine subjects from each group by Mann-Whitney test. […]

CN(C)[C@@H]1C(O)=C(C(N)=O)C(=O)[C@@]2(O)C(O)=C3C(=O)c4c(O)cccc4[C@@](C)(O)[C@H]3C[C@@H]12 [tetracycline]
periodontal pocket depth against control group of feeding distilled water (pMT) ([1]; all time points): Significant difference | periodontal pocket improvement level against day 4 ([1]; at day 12 and 16): Significant difference | periodontal pocket depth against day 4 ([2]; at day 12 and 16): significant difference | periodontal pocket depth compared to control group (tMT) ([2]; in each time point): significant difference
